Laboratory results: PubChem BioAssay AID493014 (National Center for Advancing Translational Sciences (NCATS), 2011)
This is one part of the list. Shown are side measurements of this screen, not its main read-out; they come without a call. The list favours compounds with an active or inconclusive main result. Potencies come from curve fits of mixed quality, noted in brackets.

Assay: qHTS Assay to Find Inhibitors of Chronic Active B-Cell Receptor Signaling
Conditions: ABC-DLBCL IkBa-CBG/CBR reporter, luminescence ratio (green luciferase fused to IkBa over red control in TMD8 lymphoma cells), 4 h
Method in brief: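 Concentration-response series (up to 46 uM) were applied to TMD8 dual-reporter cells for 4 h at 37C with doxycycline. Green/red ratio, after filter-overlap correction, defined %Activity; red signal alone was normalised to basal cells and zero luminescence.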

[1] = measured here: CBR red luminescence, cell number
[2] = measured here: IkBa-CBG green luminescence

Row | SMILES | AC50 [1] | AC50 [2]
1 | CC1(C)CC(=O)C2=C(C1)OC(N)=C(C#N)C2c1ccsc1 (stereo not given) | 4.61 µM [falling, partial curve, poor fit] | –
2 | Cc1ccc(NC(=S)c2nc3ccccc3s2)cc1 | 3.16 µM [falling, full curve] | –
3 | C[C@H](CO)N1C[C@H](C)[C@@H](CN(C)Cc2ccc3c(c2)OCO3)Oc2c(NC(=O)Cc3ccccc3)cccc2C1=O | 16.4 µM [falling, single point] | –
4 | COC(=O)C(C)Oc1ccc2c(c1)O/C(=C\c1cccc(Br)c1)C2=O (stereo not given) | 20 µM [rising, partial curve, poor fit] | –
5 | O=C(NCCN1CCOCC1)c1c(O)nc2ccccn2c1=O | 12.6 µM [rising, partial curve, poor fit] | –
6 | COc1ccc(-c2c(C#Cc3ccsc3)c3cc(-c4cccc5[nH]ccc45)ccc3n2C)cc1 | 29.1 µM [falling, single point] | –
7 | COc1ccc(NCc2nnc(SCc3ccc(Cl)cc3)n2-c2ccccc2)cc1 | 18.4 µM [falling, single point] | –
8 | CCN(CC)S(=O)(=O)c1ccc2oc(C(=O)N3CCc4ccccc4C3)c(C)c2c1 | 32.6 µM [falling, single point] | –
9 | CCCCn1c(C)cc(C)c(S(=O)(=O)c2ccccc2C)c1=O | 13 µM [falling, partial curve, poor fit] | –
10 | Cc1nn2c(-c3cccc(NC(=O)c4ccco4)c3)nnc2c2ccccc12 | 13 µM [rising, single point] | –
11 | Cc1cccc(NC(=O)CSc2nc3ccccc3c(=O)n2C)c1 | 2.51 µM [falling, full curve] | –
12 | C=CCc1c(C)nc(-c2ccccc2)nc1N/N=C(\C)c1ccccc1 | – | 3.26 µM [rising, full curve]
13 | O=C(C1=C[C@H](C2CCCCC2)C[C@H](OCc2ccc(CO)cc2)O1)N1CCN(Cc2ccc3c(c2)OCO3)CC1 | 35.5 µM [falling, single point] | –
14 | O=C(NC(=S)N1CCc2ccccc21)c1ccccc1 | 3.26 µM [falling, single point] | –
15 | CC(=O)Nc1ccc(C(=O)N2CCN(C(=O)c3ccco3)CC2)cc1 | 20.6 µM [falling, partial curve, poor fit] | –
16 | C[C@H](NC(=O)c1ccc(Cl)cc1)C(=O)NNC(=O)c1cccs1 | 5.8 µM [rising, full curve, poor fit] | –
17 | Cc1ccnc(NC(=O)/C=C/c2ccccc2Cl)c1 | 18.4 µM [falling, single point] | –
18 | COc1ccc2c(c1)O/C(=C\c1sccc1C)C2=O | 5.17 µM [rising, partial curve, poor fit] | –
19 | Cc1ccccc1CSc1nc2n(n1)C(c1cccs1)C1=C(CCCC1=O)N2 (stereo not given) | 32.6 µM [falling, single point] | –
20 | O=S(=O)(c1ccc2c(c1)OCO2)N1CCN(c2nnnn2-c2ccccc2)CC1 | 0.0891 µM [falling, full curve, poor fit] | –

Grouped by structure: the entries above with four or more nitrogen atoms (6)
Row | SMILES | AC50 [1] | AC50 [2]
5 | O=C(NCCN1CCOCC1)c1c(O)nc2ccccn2c1=O | 12.6 µM [rising, partial curve, poor fit] | –
7 | COc1ccc(NCc2nnc(SCc3ccc(Cl)cc3)n2-c2ccccc2)cc1 | 18.4 µM [falling, single point] | –
10 | Cc1nn2c(-c3cccc(NC(=O)c4ccco4)c3)nnc2c2ccccc12 | 13 µM [rising, single point] | –
12 | C=CCc1c(C)nc(-c2ccccc2)nc1N/N=C(\C)c1ccccc1 | – | 3.26 µM [rising, full curve]
19 | Cc1ccccc1CSc1nc2n(n1)C(c1cccs1)C1=C(CCCC1=O)N2 (stereo not given) | 32.6 µM [falling, single point] | –
20 | O=S(=O)(c1ccc2c(c1)OCO2)N1CCN(c2nnnn2-c2ccccc2)CC1 | 0.0891 µM [falling, full curve, poor fit] | –

Next part.

Row | SMILES | AC50 [1] | AC50 [2]
21 | O=C(CN1CCC(C(=O)c2ccc(Cl)cc2)CC1)Nc1ccc2c(c1)OCCO2 | 11.2 µM [falling, partial curve, poor fit] | –
22 | O=C(NCCC1=CCCCC1)c1ccc(Br)o1 | 3.66 µM [rising, single point] | –
23 | COc1ccc(NS(=O)(=O)c2cc(NC(=O)Cn3cnc4c3c(=O)n(C)c(=O)n4C)ccc2C)cc1 | 11.2 µM [falling, partial curve, poor fit] | –
24 | CS(=O)(=O)c1ccc(Cl)c(NC(=O)COC(=O)CCCN2C(=O)c3cccc4cccc(c34)C2=O)c1 | 0.116 µM [rising, full curve, poor fit] | –
25 | O=[N+]([O-])c1c(NCCO)cc(Sc2nc3ccccc3s2)c2nonc12 | 17.8 µM [falling, single point] | 35.5 µM [rising, partial curve, poor fit]
26 | O=C(c1ccc(Cl)c([N+](=O)[O-])c1)N(Cc1ccc(F)cc1)C1CCS(=O)(=O)C1 (stereo not given) | 22.4 µM [falling, single point] | –
27 | COc1ccc(COc2ccsc2C(=O)Nc2ccc(Cl)cc2)cc1 | 0.731 µM [rising, full curve, poor fit] | –
28 | O=C(CN(Cc1ccccc1)S(=O)(=O)c1ccccc1)N/N=C/c1ccc2c(c1)OCO2 | 22.4 µM [falling, single point] | –
29 | CCOc1ccc(C(=O)N/N=C/c2ccc(-c3ccc(S(=O)(=O)Nc4ncccn4)cc3)o2)cc1 | 5.8 µM [falling, full curve, poor fit] | –
30 | Cc1nnc(NC(=O)C2CCN(S(=O)(=O)c3cc([N+](=O)[O-])ccc3Cl)CC2)o1 | 2.06 µM [falling, partial curve, poor fit] | –
31 | Cc1cc(C(=O)N(C)CC2CCCN(CCc3ccc(F)cc3)C2)c(C)o1 (stereo not given) | 22.4 µM [rising, single point] | –
32 | Cc1ccc(-c2ccc(C(=O)O)[nH]2)cc1 | 0.447 µM [rising, full curve, poor fit] | –
33 | COc1ccc(/C(C)=N/NC(=O)c2nnn(-c3nonc3N)c2-c2ccccc2)cc1 | 0.251 µM [rising, full curve, poor fit] | –
34 | COC(=O)CCC(=O)OC1(C)C(=O)C2=COC(c3ccc(OC)cc3)=CC2=C(Br)C1=O (stereo not given) | 31.6 µM [rising, single point] | –
35 | CC(=O)Nc1ccc(NC(=O)c2nc(S(=O)(=O)Cc3cccc(C)c3)ncc2Cl)cc1 | 5.01 µM [falling, full curve, poor fit] | –
36 | Oc1cc(OCc2ccccc2)ccc1-c1[nH]ncc1-c1ccccc1 | 10 µM [rising, partial curve] | –
37 | Cc1cc(C(F)(F)F)nn1CC(=O)NNC(=S)Nc1ccc(F)cc1 | 29.1 µM [falling, partial curve, poor fit] | –
38 | CCOc1ccc(C(=O)NC(=S)N(Cc2ccccc2)Cc2ccccc2)cc1 | 4.47 µM [falling, partial curve] | –
39 | COc1ccc(/C=N/NC(=O)Cc2n[nH]c(=O)[nH]c2=O)cc1 | 0.1 µM [falling, full curve, poor fit] | –
